PubChem BioAssay AID2685 (National Center for Advancing Translational Sciences (NCATS), 2010)
This is one part of the list. Further columns of the screen follow, without active or inactive calls. Compounds called inactive in the main read-out are mostly missing here. The note in brackets gives the kind of curve behind each potency; many fits are weak.

Test: qHTS Assay for Lipid Storage Modulators in Drosophila S3 Cells;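 as to cell number change: cells counted by Cell Tracker Red CMTPX staining in the red channel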
Conditions: BODIPY lipid droplet fluorescence, 18-24 h; for cell number change: measured here: cell count max response, cells fed with added oleic acid
In short: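 Drosophila S3 cells loaded with oleic acid (400 uM, as added) and compounds at several concentrations; lipid droplets imaged by 488-nm laser-scanning cytometry, 500–530 nm intensity and object ratio to cell channel. Percent activity normalized to 20 uM Triacsin C.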

[1] = measured here: lipid fluorescence (Fed channel) AC50, cells fed with added oleic acid
[2] = measured here: cell number channel AC50, cells fed with added oleic acid

Structure (SMILES)	cell number change [%]	AC50 [1]	AC50 [2]
Cc1csc2c(SCC(=O)NNS(=O)(=O)c3cccc(C(F)(F)F)c3)ncnc12	16.7	0.259 µM [falling, full curve, poor fit]	–
Cc1ccc(C(=O)NNC(=O)c2ccc(-n3cncn3)c([N+](=O)[O-])c2)cc1	50	2.59 µM [rising, partial curve]	0.13 µM [falling, full curve, poor fit]
CCOC(=O)C1=C(N)Oc2cc(O)ccc2C1c1cccnc1 (stereo not drawn)	-10.8	0.00517 µM [falling, full curve, poor fit]	–
COc1ccc(S(=O)(=O)N2CCC3(CC2)CC(=O)c2ccccc2O3)cc1C	-5.83	5.17 µM [falling, full curve, poor fit]	–
COCCNC(=O)c1ccc2c(c1)nc(C)n2-c1cccc(F)c1	-8.11	–	–
Cc1cccn2c(/C=N/OCc3cccc(F)c3)c(-c3ccc(Cl)cc3)nc12	12.9	–	–
CC(NC(=O)CN(c1cccc(C(F)(F)F)c1)S(=O)(=O)c1ccc(Cl)c([N+](=O)[O-])c1)c1ccccc1 (stereo not drawn)	-35.7	29.1 µM [falling, partial curve, poor fit]	23.1 µM [falling, single point]
CCCCCCCCCCOC(=O)C[N+](C)(C)C/C=C(/C)Cl	–	1.84 µM [falling, partial curve]	–
O=C(COC(=O)c1ccccn1)c1ccc(Br)cc1	-1.09	6.51 µM [falling, single point]	–
Cn1c(=O)n(CCc2ccccc2)c(=O)c2c1nc1n2CCCN1c1ccccc1	–	4.11 µM [rising, single point]	–
COc1ccc(CCNC(=O)c2cc(C(=O)c3cc(Cl)ccc3O)cn(CCc3ccc(OC)cc3)c2=O)cc1	-21.1	–	1.3 µM [falling, full curve]
O=C(NCc1cccc(F)c1)c1ccc(N2C(=O)Cn3c(cc4sccc43)C2=O)cc1	46.2	0.0651 µM [falling, partial curve, poor fit]	14.6 µM [rising, single point]
CC(=O)c1ccc(NC(=O)c2ccc(C)c(Br)c2)cc1	2	29.1 µM [falling, single point]	–
CN(C1CCS(=O)(=O)C1)S(=O)(=O)c1cccs1 (stereo not drawn)	4.92	–	–
c1ccc(-c2noc(CCC3CCCC3)n2)cc1	-51.1	–	–
O=C(Nc1ccccc1C(F)(F)F)c1cnccn1	13.8	–	–
CN1CCN(C(=O)C2CC(=O)N(c3ccc(Cl)cc3)C2)CC1 (stereo not drawn)	–	–	0.13 µM [rising, full curve, poor fit]
Cc1nc(-c2cccc(Cl)c2)n[nH]1	6.45	1.84 µM [rising, full curve, poor fit]	–
CCOC(=O)c1cnc(Nc2nc3ccccc3o2)nc1CSC(=S)N1CCCCC1	4.2	–	–
CSc1cccc(NC(=O)NCc2cccc(CNC(=O)Nc3cccc(SC)c3)c2)c1	-29.7	32.6 µM [falling, single point]	–

Structure (SMILES)	cell number change [%]	AC50 [1]	AC50 [2]
Cc1ccc(S(=O)(=O)N(C)C)cc1NC(=O)Nc1c(-c2ccccc2)noc1C	2.38	6.51 µM [falling, single point]	4.11 µM [falling, single point]
CC1(C)Cc2cccc(OCC(=O)OCc3nnc(-c4ccc([N+](=O)[O-])cc4)o3)c2O1	-18.9	0.291 µM [falling, full curve, poor fit]	–
Cc1cccc(NC(=O)Cn2cccc2)c1	–	29.1 µM [rising, single point]	–
O=C(/C=C/c1ccccc1)N1CCC(Cc2ccccc2)CC1	-24.8	1.03 µM [falling, partial curve]	–
CC1CC(=S)Nc2ccccc2N1Cc1ccccc1 (stereo not drawn)	–	0.164 µM [rising, full curve, poor fit]	–
CC(=O)c1ccc(N2CCN(C(=O)C3CCN(S(=O)(=O)c4ccc(F)cc4)CC3)CC2)cc1	-36.7	14.6 µM [falling, partial curve, poor fit]	–
CN(C)CCNc1oc(COc2ccc(-c3ccccc3)cc2)nc1C#N	-32.8	–	13 µM [falling, partial curve, poor fit]
COc1ccc(OCCOc2ccc(C)nc2[N+](=O)[O-])cc1	38	14.6 µM [rising, partial curve]	10.3 µM [rising, single point]
Cc1cc(C)nc(SCc2nc3ncccn3c2Br)n1	6.26	2.59 µM [rising, single point]	–
O=C(COc1ccc2c(c1)OCO2)Nc1ccc2c(c1)oc1ccccc12	-48	0.0184 µM [rising, single point]	32.6 µM [falling, single point]
Cc1cc(Cl)c(S(=O)(=O)N2CCN(c3ccc(F)cc3)CC2)cc1OCC(N)=O	4.59	–	1.84 µM [rising, partial curve, poor fit]
OCC[C@H]1C[C@@H](O)[C@H](O)[C@@]2(Cc3ccccc3O2)O1	-14.4	2.31 µM [rising, partial curve, poor fit]	–
COc1ccc(CCNC(=O)C(=O)NCCCN2CCOCC2)cc1	80.6	29.1 µM [rising, partial curve]	–
Cc1nn(C(=O)c2ccco2)c(C)c1Sc1ccc(Br)cc1	45.4	20.6 µM [rising, partial curve, poor fit]	25.9 µM [rising, single point]
COc1cc(CNCCO)cc(Cl)c1OCc1ccccc1Cl	1.54	–	–
CCOc1cccc(OCCCOc2cccc3cccnc23)c1	17.4	10.3 µM [rising, partial curve]	–
CN1CCC(C2(O)c3ccccc3CCc3ccccc32)CC1	13.2	2.91 µM [falling, single point]	–
Cc1cc(Br)ccc1OCC(=O)NNC(=O)CCc1ccccc1	45.8	–	8.2 µM [rising, partial curve, poor fit]
COc1ccc(S(=O)(=O)Oc2ccc3ccccc3c2)cc1	40.2	32.6 µM [rising, single point]	16.4 µM [rising, single point]
Cc1ccc(CN2CC(C(=O)N3CCN(S(=O)(=O)c4c(F)cccc4F)CC3)CC2=O)cc1 (stereo not drawn)	14.5	–	–

One compound at a time, as listed above. Order of values: cell number change [%]	AC50 [1]	AC50 [2]
COc1cc(CNCCO)cc(Cl)c1OCc1ccccc1Cl is entered as 1.54	–	–
CN(C)CCNc1oc(COc2ccc(-c3ccccc3)cc2)nc1C#N is entered as -32.8	–	13 µM [falling, partial curve, poor fit]
COc1ccc(S(=O)(=O)Oc2ccc3ccccc3c2)cc1 is entered as 40.2	32.6 µM [rising, single point]	16.4 µM [rising, single point]

Later entries.

Structure (SMILES)	cell number change [%]	AC50 [1]	AC50 [2]
O=S(=O)(Nc1ccc(O)c(Sc2nc3ccccc3s2)c1)c1cccc2ccccc12	-14.9	10.3 µM [falling, single point]	–
CCOc1ccccc1OCCC(=O)NNC(=O)Cn1nc(C)cc1C	-28.5	–	0.651 µM [falling, full curve, poor fit]
Cc1ccc(C(=O)N/C(=C\c2cn(S(=O)(=O)N(C)C)c3ccccc23)C(=O)N2CCCC2)cc1	–	0.58 µM [rising, single point]	–
Cc1ccccc1OCCC(=O)OCC(=O)NC1CC1	15.7	29.1 µM [falling, single point]	–
CCOc1ccc(N(CC(=O)NCCc2ccccc2)C(=O)c2csnn2)cc1	-12.4	6.51 µM [rising, single point]	–
CCOC(=O)c1c(CN(C)C)oc2cc(CN(C)C)c(O)c(CSc3ccccc3)c12	-14.2	–	0.92 µM [rising, full curve, poor fit]
COc1ccc(C(=O)NC2=NCCS2)c(OC)c1	-27	29.1 µM [falling, single point]	–
COc1ccc(-c2cc(C(F)(F)F)nc(SCC(=O)NCc3cccs3)n2)cc1	–	6.51 µM [rising, single point]	2.06 µM [rising, partial curve]
CCCCCC(=O)N1CC2(C)CN(C(=O)CCCCC)CC(C)(C1)C2=O	17.4	0.58 µM [falling, single point]	0.731 µM [falling, full curve]
N#Cc1c(NCCCO)nc(-c2ccco2)c2c1CCCC2	63.9	4.11 µM [falling, single point]	7.31 µM [rising, partial curve]
COC(=O)CSc1ccc(-c2nc3ccc(C)cc3[nH]2)cn1	-22.4	3.26 µM [falling, full curve]	3.26 µM [falling, single point]
C=CCn1c(SCC(=O)Nc2ccccc2CC)nnc1-c1ccncc1	69.4	2.31 µM [rising, full curve, poor fit]	11.6 µM [rising, partial curve]
COc1ccc(C2C(C(=O)c3sc(C)nc3C)=C(O)C(=O)N2CCN(C)C)cc1 (stereo not drawn)	-49	29.1 µM [falling, single point]	0.291 µM [falling, full curve]
CC1CN(C(=O)c2cccc(C(=O)N3CC(C)OC(C)C3)c2)CC(C)O1 (stereo not drawn)	–	2.06 µM [falling, single point]	–
COc1ccc(-c2nc(CS(=O)(=O)CC(=O)Nc3ccc(Cl)cc3)c(C)o2)cc1	13.1	–	–
O=C(CCC(=O)c1cccs1)NCc1cccnc1	-14.8	0.651 µM [falling, partial curve, poor fit]	–
O=c1cc(O)n(-c2ccc(Cl)cc2)c(=S)[nH]1	–	0.00461 µM [falling, full curve, poor fit]	–
CCOC(=O)c1sc(NC(=S)NC(=O)CC(C)C)cc1C	-36.7	20.6 µM [falling, partial curve, poor fit]	13 µM [falling, partial curve, poor fit]
